Laboratory results taken from patent US20160272716A1 (AGENSYS, published 2016).
Results are given in words; binding and its absence hold for the method and conditions named. Some entries that bind do so weakly or less than the wild type.

Chains of the proteins cited; added tags and fusions are not shown. Lines headed by an entry give the natural chain unless they say otherwise; changes in a name come on top.
UniProt P36888: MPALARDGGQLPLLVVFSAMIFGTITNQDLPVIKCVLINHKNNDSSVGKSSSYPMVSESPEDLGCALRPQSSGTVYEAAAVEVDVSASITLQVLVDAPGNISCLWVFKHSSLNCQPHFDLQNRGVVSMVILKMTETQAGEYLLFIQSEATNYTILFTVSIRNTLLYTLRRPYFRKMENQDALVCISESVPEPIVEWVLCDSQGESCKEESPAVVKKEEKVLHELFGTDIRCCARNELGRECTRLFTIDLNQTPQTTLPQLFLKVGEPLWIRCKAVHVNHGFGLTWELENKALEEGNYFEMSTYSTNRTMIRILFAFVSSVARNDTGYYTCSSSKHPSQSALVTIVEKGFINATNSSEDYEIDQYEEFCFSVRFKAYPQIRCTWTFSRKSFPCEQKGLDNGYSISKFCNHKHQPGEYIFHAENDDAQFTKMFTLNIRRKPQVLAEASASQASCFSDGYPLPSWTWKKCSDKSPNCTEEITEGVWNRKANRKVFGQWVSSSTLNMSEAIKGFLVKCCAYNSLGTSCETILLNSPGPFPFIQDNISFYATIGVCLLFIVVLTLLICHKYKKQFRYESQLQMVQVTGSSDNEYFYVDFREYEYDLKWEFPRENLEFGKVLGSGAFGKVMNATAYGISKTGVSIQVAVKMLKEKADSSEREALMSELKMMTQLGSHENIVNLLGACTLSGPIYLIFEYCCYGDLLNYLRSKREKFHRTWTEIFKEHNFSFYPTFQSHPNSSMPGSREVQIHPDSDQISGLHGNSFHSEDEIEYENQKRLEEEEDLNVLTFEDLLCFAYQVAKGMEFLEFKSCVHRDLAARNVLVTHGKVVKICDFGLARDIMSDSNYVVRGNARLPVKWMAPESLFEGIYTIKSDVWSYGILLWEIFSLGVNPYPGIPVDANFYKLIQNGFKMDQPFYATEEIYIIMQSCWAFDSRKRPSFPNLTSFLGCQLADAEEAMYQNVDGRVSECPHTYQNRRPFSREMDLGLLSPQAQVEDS

Assays:
[1] = biological target: Recombinant human FLT3-Fc (R and D Systems) (human) (UniProt P36888); experiment: Luminex: biotinylated ligand on FLT3-Fc microspheres, Streptavidin-R-Phycoerythrin
[2] = biological target: Recombinant human FLT3-Fc (R and D Systems) (human) (UniProt P36888); experiment: Luminex bead assay: biotinylated FLT3 ligand (5 ng/mL) on Flt3-Fc chimera immobilised on microspheres, detected with streptavidin-PE
[3] = biological target: T1, human FLT3 expressed on the cell surface (human, UniProt P36888 27-993); experiment: competition FACS on MOLM-13 cells: FL titrated 0.1 to 100 ng/ml, 30 min pre-incubation; displaced antibody: biotinylated cHv62-1b37.1 at 10 ug/ml
T1 construct: FLT3 on human leukemia cell lines, on recombinant cells and on primary blood cells; also called Flk2; STK1
Description: In another experiment, The ability of anti-FLT3 antibodies, CHv62.21 and v62-1b37.1, to bind to FLT3 expressed on the surface of human leukemia MOLM-13 cell line was evaluated in the presence of human FLT3 Ligand (hFL). Isotype control antibody, AGS91.1-pAF, was used as a negative control.
Briefly, The MOLM-13 cells were seeded at a density of 50,000 cells per well onto round-bottom 96 well plates. The plates were washed one time with 150 μl per well of PBS. The cells were Fc blocked (20 μg/mL) at a volume of 50 μl per well in FACS buffer (PBS+2% FBS+0.1% sodium azide) to reduce non-specific binding. Cells were incubated at 4° C. for 15 minutes. Human FLT3 Ligand was added to appropriate wells at 100 ng/mL and serially diluted 1:2 across the plate for a total of 11 points. Cells were incubated for 30 minutes at 4° C. prior to adding biotinylated FLT3 antibodies. After incubation, the biotinylated anti-FLT3 antibodies and isotype control antibody were prepared in FACS buffer at 10 μg/mL and 1 μg/mL and 25 μl was added to wells and incubated for 1 hour at 4° C. Cells were washed two times with FACS buffer and Streptavidin-PE (Jackson immune) was added 100 μl per well and incubated for 1 hour at 4° C. Cells were washed two times with FACS buffer and read on the Attune Cytometer (Life technologies) and analyzed in FlowJo (Tree Star) software.

Measured: binding

B1: human FLT3 ligand (ligand, UniProt P49771 27-185, looked up)
chain: TQDCSFQHSPISSDFAVKIRELSDYLLQDYPVTVASNLQDEELCGGLWRLVLAQRWMERLKTVAGSKMQGLLERVNTEIHFVTKCAFQPPPSCLRFVQTNISRLLQETSEQLVALKPWITRQNFSRCLELQCQPDSSTLPPPWSPRPLEATAPTAPQPP
modifications: biotinylated (Sulfo-NHS-LC-Biotin) in the Luminex assay
notes: later experiments say human FLT3 ligand; Treated as one molecule; also called hFL
binds: all assays above
